Over roughly 33,000 sequences, “E-score (-0.5 to 0.5)” has its median near -0.0034; the highest 2% begin near 0.25. The list shows a part of the results.
Molecular target: T1, Yap3 (UniProt P38749)
T1 sequence: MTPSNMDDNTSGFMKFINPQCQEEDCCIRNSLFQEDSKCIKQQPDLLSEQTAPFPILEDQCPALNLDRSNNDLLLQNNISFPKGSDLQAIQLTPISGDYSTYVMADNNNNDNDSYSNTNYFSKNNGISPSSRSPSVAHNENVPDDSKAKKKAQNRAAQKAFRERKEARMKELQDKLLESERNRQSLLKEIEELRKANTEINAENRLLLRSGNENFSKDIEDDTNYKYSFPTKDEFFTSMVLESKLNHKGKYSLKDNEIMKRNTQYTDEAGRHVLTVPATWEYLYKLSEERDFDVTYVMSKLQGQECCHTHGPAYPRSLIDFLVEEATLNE
Assay: PBM E-score (8-mer binding enrichment) (E-score (-0.5 to 0.5)); higher = stronger / more preferred TF binding
Conditions: protein concentration: 100 nM; construct: GST-full length
Procedure, shortened: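 Full-length yeast transcription factors or their DNA-binding domains, GST-tagged and expressed with PURExpress, were applied at about 100-200 nM to universal all-10-mer Agilent arrays. These arrays had been made double-stranded by primer extension on fresh or once-stripped slides. Detection used fluorescent anti-GST, normalisation used masliner, and E-scores for ungapped eight-base words pooled with reverse complements came from the Universal PBM Analysis Suite.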

| Sequence | PBM E-score |
| --- | --- |
| CACATTCG | 0.0393 |
| AGTCCACG | -0.215 |
| ATTACCGA | 0.247 |
| AGATTATC | 0.0919 |
| AATTGCTC | 0.00272 |
| ACTGATCA | 0.131 |
| ATGACCGC | -0.00708 |
| CTTTCCGA | -0.0334 |
| CGCGAACA | 0.0182 |
| CATCGCAG | -0.192 |
| GCCGTCCA | 0.00485 |
| AGACGCTG | -0.136 |
| GGGTGTTA | 0.0449 |
| CCGCTTTA | 0.11 |
| GCCCGAAA | 0.189 |
| ATAGATTA | 0.348 |
| AGCTCTAC | 0.0914 |
| ACTAGCAG | 0.104 |
| CTGTAGTC | -0.108 |
| CCGAGAAA | 0.225 |
| ATGCTGCC | 0.00746 |
| ATACTAAG | 0.0625 |
| CCTTGCCA | -0.0387 |
| GAATTCCC | -0.0312 |
| GCCTCTAC | -0.0717 |

| Sequence | PBM E-score |
| --- | --- |
| GAAGCGCA | -0.0437 |
| GTCGTAAC | 0.0313 |
| AGCCCTTA | -0.0423 |
| ACCGATAA | 0.156 |
| CCAGCAGC | -0.172 |
| AGGGTCAA | 0.0461 |
| ATAAGTTA | 0.245 |
| GGTAATAC | 0.208 |
| CAGCTATA | -0.0127 |
| GCGTAAGC | -0.0375 |
| CCGTGTAG | -0.0145 |
| ATGCATAG | -0.0028 |
| CGCTAAGA | -0.0966 |
| CAACCATA | 0.161 |
| CTCAGTCC | -0.232 |
| CGAATCAA | 0.194 |
| CGCGTGCA | -0.073 |
| GCTAATAA | 0.144 |
| AGAAAAGG | 0.0998 |
| ATAAACGG | 0.205 |
| TACATACA | 0.209 |
| GATGATAC | 0.00906 |
| CGCGTTAA | 0.0876 |
| CGGCGACG | -0.0597 |
| CCTATCCG | -0.0541 |

Three entries from above, with tabs:
Sequence	PBM E-score
AGAAAAGG	0.0998
ATAAACGG	0.205
TACATACA	0.209

Further results:

| Sequence | PBM E-score |
| --- | --- |
| AATCGTGA | -0.112 |
| CAGGCAGG | -0.0524 |
| GCCCGCGC | -0.178 |
| AATCGTCA | 0.144 |
| CACCCCTG | -0.299 |
| ACCGTAGG | -0.34 |
| AGAGAATC | -0.0708 |
| CGAACACA | 0.174 |
| CCGATCGC | -0.0488 |
| TCATCGAA | -0.0175 |
| AGTATGAT | 0.221 |
| GGGAGATA | 0.026 |
| GGATTGCA | 0.116 |
| AAAGGTGA | 0.0224 |
| CGCGGTTA | -0.0159 |
| ACGTTTTG | 0.0279 |
| GTCTAAAA | 0.00304 |
| CCGGTGAG | -0.114 |
| GGCGAGCA | -0.0472 |
| CACGCCAA | -0.0782 |
| ACGTCAGT | -0.0573 |
| GACGTATA | -0.098 |
| TTACCAAA | 0.22 |
| AGTGGTTC | -0.0567 |
| GATGAGGC | -0.131 |

Quoted at random: four entries already listed, in no set order.

| Sequence | PBM E-score |
| --- | --- |
| AATCGTCA | 0.144 |
| GCCCGCGC | -0.178 |
| AATCGTGA | -0.112 |
| GATGAGGC | -0.131 |

The list continues.

| Sequence | PBM E-score |
| --- | --- |
| ATAAAAGC | 0.0507 |
| AGTGTCGG | 0.0449 |
| CCTGTACG | -0.111 |
| CAATCGGA | 0.207 |
| CACGTCGG | -0.166 |
| AGTATACT | -0.0564 |
| CACCGGGA | -0.246 |
| ATTAGAAA | 0.104 |
| GCAAAGGC | -0.239 |
| CACATAAG | 0.053 |
| AACTGATT | -0.0243 |
| GGAAGACC | -0.336 |
| ACGCCGAT | -0.0663 |
| GAGCGTAA | 0.198 |
| AGCCAACT | -0.203 |
| CCATATAA | 0.131 |
| AGCGTGCG | 0.0339 |
| AACAGCTA | -0.0101 |
| GAAGAGAC | -0.0037 |
| CACAACCC | -0.00206 |
| CATTTAGC | -0.0541 |
| GTAGAAGA | 0.118 |
| AATACGAA | 0.138 |
| CCGCCCTA | -0.199 |
| AGCGCAAG | -0.0984 |

| Sequence | PBM E-score |
| --- | --- |
| AGTGGGTC | -0.219 |
| CTCCGTCA | -0.169 |
| CTAAGTAA | 0.114 |
| ACGTAACG | 0.208 |
| AGGCACCT | -0.208 |
| AATCTGCT | -0.00975 |
| AGGTTGCC | -0.0836 |
| CTCAATCA | 0.092 |
| CCTGGCCC | -0.254 |
| AAAGTTGG | 0.0701 |
| AGCGTAAC | 0.0789 |
| GACGAGTC | -0.183 |
| CCGTTACG | 0.0295 |
| ACGCTCTA | -0.162 |
| CTTTCCCA | -0.00553 |
| CGCTGCGA | 0.0607 |
| GGTGCCAC | -0.24 |
| TAATGATA | 0.239 |
| AAAATGAT | 0.265 |
| AGCTACCA | -0.0542 |
| AATCAGGT | 0.0919 |
| TCAACTCA | 0.05 |
| GAGCCAAA | 0.0785 |
| AAGTTCAA | 0.149 |
| AATCTCCC | -0.126 |

Taken from above.
In PBM E-score, GGTGCCAC shows -0.24
In PBM E-score, ACTGATCA shows 0.131
In PBM E-score, AGTGGTTC shows -0.0567

(further entries)

| Sequence | PBM E-score |
| --- | --- |
| CTATAAAG | 0.074 |
| GATTTGCC | 0.076 |
| AAAGCAAA | 0.205 |
| CACCCATC | 0.0126 |
| GACCGTGA | -0.0857 |
| CTGTGGCC | -0.361 |
| AGCTGTTC | -0.0682 |
| CAATTAAG | 0.0652 |
| AAACAGGT | 0.0263 |
| GCCAGGAC | -0.145 |
| AAGAAGGG | -0.0033 |
| GGAAGAAA | 0.103 |
| TAGGGACA | 0.00256 |
| GCCGCACA | -0.0211 |
| ATATAACC | 0.116 |
| GCAGCCCA | -0.309 |
| AAACCTAG | 0.0499 |
| CCCTTTGA | -0.125 |
| ATGCAAGG | -0.206 |
| AAAATATA | 0.19 |
| AGTTTGGA | 0.0755 |
| CCAACAAA | 0.0456 |
| ACACAGCT | -0.0406 |
| TAGGTGCA | -0.0111 |
| GAAGATTA | 0.089 |

| Sequence | PBM E-score |
| --- | --- |
| AACGAATT | 0.208 |
| TCATCACA | 0.0786 |
| AAACCTAA | 0.0806 |
| ACAGGAAG | 0.0376 |
| GAAGAACA | 0.225 |
| ATTCGGTA | 0.157 |
| GACTCATC | -0.108 |
| CAGGTGCC | -0.173 |
| ACGCACGG | -0.0399 |
| AAAGAAGT | 0.121 |
| ACTGAGCA | -0.131 |
| ATGGGGGA | -0.226 |
| CAACTTGA | 0.199 |
| GTCGATAA | 0.0282 |
| AGATGGAC | 0.0235 |
| AATGCGCT | -0.0354 |
| ACGAATGG | 0.16 |
| CTTTGGGC | 0.00338 |
| CAACGCTA | -0.0508 |
| CGCAACCA | -0.0285 |
| CGAGAGGA | 0.0282 |
| ATAGCTAG | -0.067 |
